# Data as given in PubChem BioAssay AID504804 (Drosophila RNAi Screening Center, 2011).
# Assay: 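Fly genes whose loss lessens doxorubicin-driven cell death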 (primary screen)
# Cell system: Drosophila Kc cells
# Knock-down reagent: long dsRNA against Drosophila genes, 0.5 µg dsRNA per well
# Duration: 96 h (48 h knock-down, then 48 h drug)
# Challenge: doxorubicin 5 µg/ml for 48 h, added 48 h after dsRNA
# Read-out: 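Viability measured as cellular ATP by luminescence after 48 h knock-down then 48 h doxorubicin at 5 µg/ml; unnormalised plate counts for each replicate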
# Direction: raw ATP luminescence: higher = more viable cells, protection from doxorubicin
# Active means: 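z-score of 2 or more over plate mean in both duplicates, retained only when retests and separate dsRNAs confirm the protection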
# In all, the deposit lists about 19,000 reagents; below is an unselected part of those that have a named target and a result. In the full data, 47 (0.25%) got an active call. 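Signals are raw, not normalised; exact z-scores behind calls not deposited; actives needed confirmation, so some wells reaching 2 SD are inactive.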 Entries without a mark were called inactive. Reagents against one gene are numbered here. Names joined by + are all predicted targets of the reagent.
The first 4 entries, to show the layout:
Target gene,dsRNA no.,"raw ATP luminescence, replicate 1","raw ATP luminescence, replicate 2"
Rnf146 (GeneID 40144),1,61083,58150
HP1b (GeneID 31834),1,3.78e5,3.24e5
Jupiter (GeneID 41392),1,52650,23527
Jupiter (GeneID 41392),2,58250,56053

The listing, repeating the preview:
Target gene,dsRNA no.,"raw ATP luminescence, replicate 1","raw ATP luminescence, replicate 2"
Rnf146 (GeneID 40144),1,61083,58150
HP1b (GeneID 31834),1,3.78e5,3.24e5
Jupiter (GeneID 41392),1,52650,23527
Jupiter (GeneID 41392),2,58250,56053
Jupiter (GeneID 41392),3,57633,53093
RpL7A (GeneID 31588),1,20520,24830
CG3557 (GeneID 33426),1,93040,59557
Pak3 (GeneID 41995),1,39220,43023
CG15177 (GeneID 40810),1,67483,60723
Xpc (GeneID 36697),1,67373,67180
CG11249 (GeneID 40409),1,84047,66637
RpL3 + CG6693,1,51467,36267
CG34290 (GeneID 5740609),1,2.86e5,2.86e5
Naa40 (GeneID 43500),1,55960,39320
Mis12 (GeneID 38762),1,58580,61297
Pex19 (GeneID 34630),1,1.21e5,79840
CG43736 + CG33692 (retired record),1,31250,37780
CG43736 + CG33692 (retired record),2,46880,54380
CG18787 + CG18789,1,29063,37807
Doc3 (GeneID 39036),1,63467,69597
mop (GeneID 39610),1,22417,20943
Men-b (GeneID 43936),1,58750,41610
CG9171 (GeneID 33807),1,1.21e5,77790
CG12911 (GeneID 36081),1,45343,71713
CG16736 (GeneID 41101),1,51357,51173
Gasz (GeneID 35795),1,52487,50180
Acsx4 (GeneID 42355),1,71480,47570
CR9337 (GeneID 3885658),1,70640,68553
Ser6 (GeneID 33073),1,3.37e5,3.33e5
CG31778 (GeneID 261616),1,1.03e5,65020
mthl7 (GeneID 38910),1,54700,82220
CG33502 + CG32857 + CG32500,1,2.23e5,2.50e5
CG33502 + CG32857 + CG32500,2,1.95e5,2.10e5
CG6901 (GeneID 41977),1,1.06e5,84130
tamo (GeneID 37864),1,68813,57690
CG17019 (GeneID 36425),1,69563,79850
CG3638 (GeneID 31071),1,37760,28990
Osi7 (GeneID 40761),1,44830,59117
CG11141 (GeneID 35672),1,81593,58097
nudE (GeneID 39169),1,1.44e5,1.57e5
nudE (GeneID 39169),2,77930,65600
Pgant5 (GeneID 326151),1,1.05e5,85160
CG12784 (GeneID 41903),1,62970,56300
nAChRbeta2 (GeneID 42920),1,39067,44960
CG4854 (GeneID 42391),1,38300,38370
SPoCk (GeneID 40495),1,57243,64680
SPoCk (GeneID 40495),2,63627,66357
SPoCk (GeneID 40495),3,70807,59907
SPoCk (GeneID 40495),4,60543,53437
CG7768 (GeneID 39573),1,25237,21137
CG17010 (GeneID 34650),1,78547,65160
CG7384 (GeneID 34447),1,1.03e5,90397
Amt (GeneID 41841),1,73650,67760
Cul6 (GeneID 39474),1,44860,43873
CG11893 (GeneID 43056),1,84940,73250
CG42237 (GeneID 32261),1,3.18e5,3.28e5
ems (GeneID 41697),1,73730,59560
CG8230 (GeneID 35897),1,41793,73053
Pburs (GeneID 34845),1,50587,69773
CG17030 (GeneID 38591),1,82407,80890
Est-Q (GeneID 40381),1,21443,21927
CG14645 (GeneID 50160),1,70280,68027
LamC (GeneID 36615),1,53577,49447
Golgin104 (GeneID 39810),1,26890,19273
VAChT + ChAT,1,3.07e5,2.71e5
CG9308 (GeneID 37507),1,44960,46730
snRNP-U1-C (GeneID 42274),1,30460,32330
zye (GeneID 40255),1,77427,70903
CG17361 (GeneID 39548),1,58840,51917
RecQ4 (GeneID 53438),1,68880,80280
CG13051 (GeneID 5740583),1,42267,38010
MED21 (GeneID 3354977),1,3.38e5,2.80e5
CatB (GeneID 34198),1,1.09e5,69190
CG17118 (GeneID 34478),1,37140,60460
nrv3 (GeneID 35408),1,1.94e5,2.34e5
CG15353 (GeneID 50191),1,1.75e5,1.86e5
mRpS33 (GeneID 41991),1,1.21e5,1.19e5
hll (GeneID 34822),1,66633,64297
hale (GeneID 40183),1,62593,52683
Chchd3 (GeneID 43672),1,30060,29160
CG30380 (GeneID 246579),1,71377,91817
CG10481 (GeneID 35273),1,39947,43613
SkpC (GeneID 32996),1,3.72e5,3.32e5
CG6700 (GeneID 34496),1,64793,47917
